Drawing on article PMC12819141, “RNase MRP subunit composition and role in 40S ribosome biogenesis” (Nature Structural & Molecular Biology, 2025), this text covers binding for 11 molecules.

Results are given in words; binding and its absence hold for the method and conditions named. Binding seen in cells or lysates may run through a third protein. A yes stands for co-enrichment or nearness to the bait. Other partners may have been found. For some of these results: No binding means not detected with the bait. Tags and fused reporters may be left off the sequences shown.

Sequences and labels used below:
T1: C18orf21–GFP (human) (UniProt Q32NC0)
T1 sequence: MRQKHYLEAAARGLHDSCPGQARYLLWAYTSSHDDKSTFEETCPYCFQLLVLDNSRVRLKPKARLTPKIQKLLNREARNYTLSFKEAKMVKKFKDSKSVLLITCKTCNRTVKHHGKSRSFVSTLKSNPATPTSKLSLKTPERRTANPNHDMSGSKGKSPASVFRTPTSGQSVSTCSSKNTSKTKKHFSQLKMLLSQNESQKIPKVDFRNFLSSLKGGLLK

T2: NEPRO–GFP (human) (UniProt Q6NW34)
T2 sequence: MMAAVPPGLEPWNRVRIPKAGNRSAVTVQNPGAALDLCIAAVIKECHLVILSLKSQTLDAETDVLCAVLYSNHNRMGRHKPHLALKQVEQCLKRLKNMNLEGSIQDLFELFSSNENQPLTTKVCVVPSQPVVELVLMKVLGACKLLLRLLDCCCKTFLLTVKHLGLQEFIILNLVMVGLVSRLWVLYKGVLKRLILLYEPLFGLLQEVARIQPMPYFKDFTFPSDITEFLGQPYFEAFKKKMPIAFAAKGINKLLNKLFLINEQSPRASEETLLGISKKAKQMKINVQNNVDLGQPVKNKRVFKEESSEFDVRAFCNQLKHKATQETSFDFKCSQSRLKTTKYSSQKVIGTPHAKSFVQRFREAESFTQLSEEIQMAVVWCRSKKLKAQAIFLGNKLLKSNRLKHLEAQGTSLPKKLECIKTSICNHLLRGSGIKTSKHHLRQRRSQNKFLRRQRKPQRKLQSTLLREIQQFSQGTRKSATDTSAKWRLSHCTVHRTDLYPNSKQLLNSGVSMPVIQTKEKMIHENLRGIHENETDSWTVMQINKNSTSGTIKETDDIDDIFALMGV

T3: RPP14–GFP (human) (UniProt O95059)
T3 sequence: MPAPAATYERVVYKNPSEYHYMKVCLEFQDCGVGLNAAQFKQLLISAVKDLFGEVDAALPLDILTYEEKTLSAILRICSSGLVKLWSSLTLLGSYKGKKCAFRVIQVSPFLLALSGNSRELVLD

T4: RPP21–GFP (human) (UniProt Q9H633)
T4 sequence: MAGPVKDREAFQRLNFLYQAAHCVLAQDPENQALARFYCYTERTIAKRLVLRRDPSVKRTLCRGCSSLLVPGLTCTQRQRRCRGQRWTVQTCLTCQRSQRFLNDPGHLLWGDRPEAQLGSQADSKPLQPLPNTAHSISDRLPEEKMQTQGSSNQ

B1: POP1 (protein, UniProt Q99575 1-1024)
chain: MSNAKERKHAKKMRNQPTNVTLSSGFVADRGVKHHSGGEKPFQAQKQEPHPGTSRQRQTRVNPHSLPDPEVNEQSSSKGMFRKKGGWKAGPEGTSQEIPKYITASTFAQARAAEISAMLKAVTQKSSNSLVFQTLPRHMRRRAMSHNVKRLPRRLQEIAQKEAEKAVHQKKEHSKNKCHKARRCHMNRTLEFNRRQKKNIWLETHIWHAKRFHMVKKWGYCLGERPTVKSHRACYRAMTNRCLLQDLSYYCCLELKGKEEEILKALSGMCNIDTGLTFAAVHCLSGKRQGSLVLYRVNKYPREMLGPVTFIWKSQRTPGDPSESRQLWIWLHPTLKQDILEEIKAACQCVEPIKSAVCIADPLPTPSQEKSQTELPDEKIGKKRKRKDDGENAKPIKKIIGDGTRDPCLPYSWISPTTGIIISDLTMEMNRFRLIGPLSHSILTEAIKAASVHTVGEDTEETPHRWWIETCKKPDSVSLHCRQEAIFELLGGITSPAEIPAGTILGLTVGDPRINLPQKKSKALPNPEKCQDNEKVRQLLLEGVPVECTHSFIWNQDICKSVTENKISDQDLNRMRSELLVPGSQLILGPHESKIPILLIQQPGKVTGEDRLGWGSGWDVLLPKGWGMAFWIPFIYRGVRVGGLKESAVHSQYKRSPNVPGDFPDCPAGMLFAEEQAKNLLEKYKRRPPAKRPNYVKLGTLAPFCCPWEQLTQDWESRVQAYEEPSVASSPNGKESDLRRSEVPCAPMPKKTHQPSDEVGTSIEHPREAEEVMDAGCQESAGPERITDQEASENHVAATGSHLCVLRSRKLLKQLSAWCGPSSEDSRGGRRAPGRGQQGLTREACLSILGHFPRALVWVSLSLLSKGSPEPHTMICVPAKEDFLQLHEDWHYCGPQESKHSDPFRSKILKQKEKKKREKRQKPGRASSDGPAGEEPVAGQEALTLGLWSGPLPRVTLHCSRTLLGFVTQGDFSMAVGCGEALGFVSLTGLLDMLSSQPAAQRGLVLLRPPASLQYRFARIAIEV
B2: RPP14 (protein, UniProt O95059 1-124)
chain: T3 sequence
B3: POP5 (protein, UniProt Q969H6 1-163)
chain: MVRFKHRYLLCELVSDDPRCRLSLDDRVLSSLVRDTIARVHGTFGAAACSIGFAVRYLNAYTGIVLLRCRKEFYQLVWSALPFITYLENKGHRYPCFFNTLHVGGTIRTCQKFLIQYNRRQLLILLQNCTDEGEREAIQKSVTRSCLLEEEEESGEEAAEAME
B4: POP7 (RPP20) (protein, UniProt O75817 1-140)
chain: MAENREPRGAVEAELDPVEYTLRKRLPSRLPRRPNDIYVNMKTDFKAQLARCQKLLDGGARGQNACSEIYIHGLGLAINRAINIALQLQAGSFGSLQVAANTSTVELVDELEPETDTREPLTRIRNNSAIHIRVFRVTPK
B5: RPP30 (protein, UniProt P78346 1-268)
chain: MAVFADLDLRAGSDLKALRGLVETAAHLGYSVVAINHIVDFKEKKQEIEKPVAVSELFTTLPIVQGKSRPIKILTRLTIIVSDPSHCNVLRATSSRARLYDVVAVFPKTEKLFHIACTHLDVDLVCITVTEKLPFYFKRPPINVAIDRGLAFELVYSPAIKDSTMRRYTISSALNLMQICKGKNVIISSAAERPLEIRGPYDVANLGLLFGLSESDAKAAVSTNCRAALLHGETRKTAFGIISTVKKPRPSEGDEDCLPASKKAKCEG
B6: RPP21 (protein, UniProt Q9H633 1-154)
chain: T4 sequence
B7: RPP25 (protein, UniProt Q9BUL9 1-199)
chain: MENFRKVRSEEAPAGCGAEGGGPGSGPFADLAPGAVHMRVKEGSKIRNLMAFATASMAQPATRAIVFSGCGRATTKTVTCAEILKRRLAGLHQVTRLRYRSVREVWQSLPPGPTQGQTPGEPAASLSVLKNVPGLAILLSKDALDPRQPGYQPPNPHPGPSSPPAAPASKRSLGEPAAGEGSAKRSQPEPGVADEDQTA
B8: NEPRO (C3orf17) (protein, UniProt Q6NW34 1-567)
chain: T2 sequence
B9: RPP38 (protein, UniProt P78345 1-283)
chain: MAAAPQAPGRGSLRKTRPLVVKTSLNNPYIIRWSALESEDMHFILQTLEDRLKAIGLQKIEDKKKKNKTPFLKKESREKCSIAVDISENLKEKKTDAKQQVSGWTPAHVRKQLAIGVNEVTRALERRELLLVLVCKSVKPAMITSHLIQLSLSRSVPACQVPRLSERIAPVIGLKCVLALAFKKNTTDFVDEVRAIIPRVPSLSVPWLQDRIEDSGENLETEPLESQDRELLDTSFEDLSKPKRKLADGRQASVTLQPLKIKKLIPNPNKIRKPPKSKKATPK
B10: RMP24 (coexpressed with RPP29 in bacteria) (natural protein, human, UniProt Q32NC0 1-220, looked up)
chain: T1 sequence
notes: C18orf21 (RMP24), human; codon-optimized bicistronic cassette with RPP29 in pGEX-6P-1; The pGEX-6P-1 vector adds GST to one of the two chains; also called C18orf21; full-length RMP24; source: E. coli BL21-DE3, coexpressed with RPP29, purified (Glutathione-Agarose, S200 increase)
B11: POP4 (RPP29) (protein, UniProt O95707 1-220)
chain: MKSVIYHALSQKEANDSDVQPSGAQRAEAFVRAFLKRSTPRMSPQAREDQLQRKAVVLEYFTRHKRKEKKKKAKGLSARQRRELRLFDIKPEQQRYSLFLPLHELWKQYIRDLCSGLKPDTQPQMIQAKLLKADLHGAIISVTKSKCPSYVGITGILLQETKHIFKIITKEDRLKVIPKLNCVFTVETDGFISYIYGSKFQLRSSERSAKKFKAKGTIDL

One test deals with T1, C18orf21–GFP (human). Briefly: affinity purification with mass spectrometry; label-free IP–MS; C-terminally GFP-tagged bait from HeLa lysate on Protein A beads coupled to rabbit anti-GFP antibody, 2 h at 4 °C; polysome lysis buffer (20 mM Hepes pH 7.5, 100 mM KCl, 5 mM MgCl2, 1% Triton X-100) with 1% CHAPS; compared with control GFP.
For the molecule B1, the binding result is listed as “binds”.
With B2, the binding entry is reported as “binds”.
For the molecule B3, the binding result is listed as “binds”.
On to B4, for which the binding result is “binds”.
With B5, the binding result is reported as “binds”.
As for B6, the binding result is recorded as “no binding”.
Same read-out and setting: in the case of B7 it was “binds”.
Turning to B8, the binding result is listed as “binds”.

For another test, the target named is T2, NEPRO–GFP (human). The description is as above.
B9: the binding result was “binds”.
B2: the binding entry is on record as “binds”.
Take B3: the binding result was “binds”.
In the case of B4, the binding entry was “binds”.
As for B5, the binding entry was “binds”.
Regarding B10, the binding result is given as “binds”.
B6: the binding entry was “no binding”.
The same measure, in the same setting: in the case of B7 it was “binds”.

For the next test, the target named is T3, RPP14–GFP (human). The test is described as above.
As to B11, the binding entry was “binds”.
Still for that read-out and setting: as for B1, the entry is “binds”; as for B9, “binds”; as for B4, “binds”.
On to B10, for which the binding entry is recorded as “binds”.
Regarding B6, the binding entry is recorded as “binds”.
The same measure, in the same setting: as for B7, the entry is “binds”.
On to B8, for which the binding entry is given as “binds”.

For another test, the target named is T4, RPP21–GFP (human). The description is as above.
As to B11, the binding result was “binds”.
Consider B1, for which the binding result is given as “binds”.
B9: the binding result is reported as “binds”.
Regarding B2, the binding entry is given as “binds”.
On to B3, for which the binding result was “binds”.
As to B4, the binding result was “binds”.
The same measure, in the same setting: in the case of B5 it was “binds”; in that of B10, “no binding”; in that of B7, “binds”.
The same measure, in the same setting: as for B8, the entry is “no binding”.
